The nature of data set [1]: general procedure: Boc solid-phase peptide synthesis; BOC-Lys(Cl-Z)-PAM resin. The following applies: whole synthesis.
The nature of data set [2]: general procedure: Boc solid-phase peptide synthesis; BOC-Lys (Cl-Z)-PAM resin (substitution 0.63 mM/g). The note with it: whole synthesis.

Where no end group is shown, it is not given here. [ ]: non-standard residue; d: D form. pGlu = O=C1CC[C@@H](C(=O)O)N1; Abu = CC[C@H](N)C(=O)O

Results on four substances are retold here after patent publication US5760003 (dated 1998).

For Pic-Glu-Asp-Abu-Lys, in data set [1], the crude mass entry is “Two hundred and fifty-one milligrams”; the isolated mass is recorded as 141 mg. In data set [2], the “final HPLC purity” value is on record as 97%.
Consider Pic-Ser-Asp-Abu-Lys, for which, in data set [1] (scale 0.56 mm), the crude mass result is “Two hundred and ninety-eight milligrams”; the isolated mass came to 178 mg. For the same substance, the “final HPLC purity” value in data set [2] is 97%.
With [pGlu]ED[Abu]K, in data set [1], the crude mass result is reported as “Two hundred twenty milligrams” and the isolated mass stood at 130 mg.
[pGlu]ED[Abu]YK: the crude mass result in data set [1] (scale 0.56 mm) is “Four hundred and fifty-four milligrams”. Moreover, the “final HPLC purity” value in data set [2] came out at 90%.
